Values from PubChem BioAssay AID1224828 (NIAID, 2016)
The deposit covers about 17,000 reagents; this is a part drawn at random. 762 of all reagents (4.5%) were called active. 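Active calls include both raised and lowered p65 entry, mostly lowered; wells with fewer than 50 cells lack a z-score.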 The raw values are shown without normalisation. Unmarked entries are inactive. No sequences are given here.

Aim: 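Knock-downs that increase or decrease LPS-induced p65 nuclear translocation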 (primary screen)
System: mouse RAW264.7 G9 macrophage reporter cells (GFP-p65, Tnf promoter-mCherry)
Reagents: siRNA pool against mouse genes, 100 nM
Time to read-out: 2 days siRNA transfection, then 40 min LPS before fixation
Challenge: LPS (Salmonella minnesota R595) at 10 ng/ml
Measured: 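Imaged p65 nuclear translocation ratio, normalised to the plate median, converted to robust z-scores and averaged across two replicates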
Reading the numbers: p65 translocation robust z-score: higher = more nuclear NF-kappaB p65 after LPS than the plate median; nuclear/cytoplasmic p65 ratio: higher = more nuclear NF-kappaB p65
Active means: 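Active if robust z is above 3.3 (negative regulators) or below -1.56, the Tlr4 control median (positive regulators); activity score 50 or more; control wells not called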
Calls: active = hit (p65 shift raised or lowered); inactive = no clear change

Trim30d (GeneID 209387) showed p65 translocation robust z-score 0.76; nuclear/cytoplasmic p65 ratio, rep 1 = 1.84; nuclear/cytoplasmic p65 ratio, rep 2 = 1.65; low cell count flag enough cells to score.
Against Tert (GeneID 21752) the deposit lists p65 translocation robust z-score 0.9; nuclear/cytoplasmic p65 ratio, rep 1 = 1.54; nuclear/cytoplasmic p65 ratio, rep 2 = 1.75; low cell count flag enough cells to score.
For Amigo1 (GeneID 229715) the deposit lists p65 translocation robust z-score 0.72; nuclear/cytoplasmic p65 ratio, rep 1 = 1.79; nuclear/cytoplasmic p65 ratio, rep 2 = 1.72; low cell count flag enough cells to score.
Silencing of Zfp418 (GeneID 232854) came out at: nuclear/cytoplasmic p65 ratio, rep 1 = 1.44; nuclear/cytoplasmic p65 ratio, rep 2 = 1.4; low cell count flag fewer than 50 cells per well; well left out of scoring.
Adam2 (GeneID 11495) gave p65 translocation robust z-score 0.43; nuclear/cytoplasmic p65 ratio, rep 1 = 1.71; nuclear/cytoplasmic p65 ratio, rep 2 = 1.66; low cell count flag enough cells to score.
Depletion of Or5g27 (GeneID 258429) gave: p65 translocation robust z-score -0.18; nuclear/cytoplasmic p65 ratio, rep 1 = 1.36; nuclear/cytoplasmic p65 ratio, rep 2 = 1.27; low cell count flag enough cells to score.
Silencing of Nek5 (GeneID 330721) resulted in: p65 translocation robust z-score -1.06; nuclear/cytoplasmic p65 ratio, rep 1 = 1.5; nuclear/cytoplasmic p65 ratio, rep 2 = 1.27; low cell count flag enough cells to score.

Single entries from above:
Entry for Or5g27 (GeneID 258429) in “low cell count flag”: enough cells to score
For “nuclear/cytoplasmic p65 ratio, rep 1”, Zfp418 (GeneID 232854) is entered as 1.44
Amigo1 (GeneID 229715), low cell count flag → enough cells to score

The results go on:
With knock-down of Chrm4 (GeneID 12672) the results were p65 translocation robust z-score -0.07; nuclear/cytoplasmic p65 ratio, rep 1 = 1.47; nuclear/cytoplasmic p65 ratio, rep 2 = 1.36; low cell count flag enough cells to score.
Against Kctd20 (GeneID 66989) the deposit lists p65 translocation robust z-score 0.12; nuclear/cytoplasmic p65 ratio, rep 1 = 1.42; nuclear/cytoplasmic p65 ratio, rep 2 = 1.51; low cell count flag enough cells to score.
After knock-down of Recql5 (GeneID 170472), the record shows p65 translocation robust z-score 0.14; nuclear/cytoplasmic p65 ratio, rep 1 = 1.48; nuclear/cytoplasmic p65 ratio, rep 2 = 1.59; low cell count flag enough cells to score.
Dqx1 (GeneID 93838) showed p65 translocation robust z-score 1.42; nuclear/cytoplasmic p65 ratio, rep 1 = 1.62; nuclear/cytoplasmic p65 ratio, rep 2 = 1.57; low cell count flag enough cells to score.
Depletion of Gm10283 (GeneID 330776) came out at: p65 translocation robust z-score -2.21 (active); nuclear/cytoplasmic p65 ratio, rep 1 = 1.43; nuclear/cytoplasmic p65 ratio, rep 2 = 1.17; low cell count flag enough cells to score.
After knock-down of Zmat2 (GeneID 66492), the record shows nuclear/cytoplasmic p65 ratio, rep 1 = 1.26; nuclear/cytoplasmic p65 ratio, rep 2 = 1.43; low cell count flag fewer than 50 cells per well; well left out of scoring.
Atad3aos (GeneID 70448) showed nuclear/cytoplasmic p65 ratio, rep 1 = 1.16; nuclear/cytoplasmic p65 ratio, rep 2 = 1.24; low cell count flag fewer than 50 cells per well; well left out of scoring.
Depletion of Or6c209 (GeneID 258929) gave: nuclear/cytoplasmic p65 ratio, rep 1 = 1.35; nuclear/cytoplasmic p65 ratio, rep 2 = 1.13; low cell count flag fewer than 50 cells per well; well left out of scoring.
E330013P04Rik (GeneID 107376) showed p65 translocation robust z-score -2.03 (active); nuclear/cytoplasmic p65 ratio, rep 1 = 1.18; nuclear/cytoplasmic p65 ratio, rep 2 = 1.14; low cell count flag enough cells to score.
Grm2 (GeneID 108068) showed p65 translocation robust z-score 1.15; nuclear/cytoplasmic p65 ratio, rep 1 = 1.59; nuclear/cytoplasmic p65 ratio, rep 2 = 1.83; low cell count flag enough cells to score.
Against Arhgef2 (GeneID 16800), the entry reads p65 translocation robust z-score -0.36; nuclear/cytoplasmic p65 ratio, rep 1 = 1.58; nuclear/cytoplasmic p65 ratio, rep 2 = 1.55; low cell count flag enough cells to score.
Depletion of Vmn1r236 (GeneID 171235) came out at: p65 translocation robust z-score 3.19; nuclear/cytoplasmic p65 ratio, rep 1 = 1.79; nuclear/cytoplasmic p65 ratio, rep 2 = 1.6; low cell count flag enough cells to score.
With knock-down of Eif4g3 (GeneID 230861), the record shows nuclear/cytoplasmic p65 ratio, rep 1 = 1.09; nuclear/cytoplasmic p65 ratio, rep 2 = 1.11; low cell count flag fewer than 50 cells per well; well left out of scoring.
Knock-down of Sec61a2 (GeneID 57743) gave: p65 translocation robust z-score 0.93; nuclear/cytoplasmic p65 ratio, rep 1 = 1.51; nuclear/cytoplasmic p65 ratio, rep 2 = 1.38; low cell count flag enough cells to score.
